Experimental data taken from patent publication US9629843B2, “MTOR modulators and uses thereof” (The Regents of the University of California, priority 2008, dated 2017).
For at least one compound, name, drawing or mass did not settle the structure.

Columns and labels:
SGK1 phosphorylation = SGK1 phosphorylation in mpkCCD cells (mobility shift immunoblot); type: cell-based; conditions: aldosterone and insulin, FIG. 28A
p70S6K phosphorylation = p70S6K phosphorylation in mpkCCD cells; type: cell-based
SGK1 pS422 = assay: HM (pS422) phosphorylation of flag-tagged SGK1 in HEK293 cells; type: cell-based, Human; conditions: insulin, FIG. 28C
[1] = tested on: wild-type and SIN1−/− MEFs; assay: Proliferation of mouse embryonic fibroblasts (Resazurin); type: cell-based
[2] = tested on: S6K, S6, 4EBP1 phosphorylation in L6 myotubes; assay: Phosphorylation of S6K, S6 and 4EBP1 in insulin stimulated L6 myotubes; type: cell-based
4EBP1 binding to eIF-4E = assay: m7GTP cap pull-down assay in L6 myotubes; type: cell-based; conditions: insulin stimulated L6 myotubes; FIG. 10
[3] = tested on: p70S6K, 4EBP1 phosphorylation in MEFs; assay: Phosphorylation of 70S6K and 4EBP1 in mouse embryonic fibroblasts; type: cell-based; conditions: wild-type and SIN1−/− MEFs; FIG. 11
Protocol: Wild-type and SIN1−/− primary mouse embryonic fibroblasts (MEFs) were grown in DMEM supplemented with about 10% FBS, glutamine and penicillin/streptomycin. MEFs were treated with TORKinib at approximately 2.5, 0.63, and 0.16 uM; rapamycin at about 15 nM; or PIK-90 at about 625 nM for approximately 30 minutes prior to insulin stimulation (e.g. 100 nM) for about 10 minutes. Cells were lysed by scraping into ice cold lysis buffer (generally: 300 mM NaCl, 50 mM Tris pH 7.5, 5 mM EDTA, 1% TRITON™ X-100, 0.02% NaN3, 20 nM microcystin, Sigma phosphatase inhibitor cocktails 1 and 2, Roche protease inhibitor cocktail and 2 mM PMSF). After contacting cells with lysis buffer, the solution was briefly sonicated. Lysates were cleared by centrifugation, resolved by SDS-PAGE, transferred to nitrocellulose and immunoblotted using antibodies to phospho-p70S6K T389, phospho-4EBP1 T37/46, phospho-4EBP1 S65, and β-actin (Cell Signaling Technologies).

[4] = tested on: Akt, S6, 4EBP1 phosphorylation in tissues; assay: In vivo effect on insulin signaling in fat, skeletal muscle and liver of mice; design: species or system C57BL/6 mice; conditions: all tissues examined
[5] = tested on: Akt-S473 and S6 phosphorylation in T cells; assay: Phosflow of anti-CD3 stimulated murine splenocytes; type: cell-based
p190 transduced cells = assay: MTS viability assay of p190 transduced cells; type: cell-based, murine; conditions: plateau at high concentrations, 48 hrs
[6] = tested on: CD19+ CD34+ B cell progenitors from Ph+ and Ph− patients; assay: Colony forming assay with human B-ALL cells; type: cell-based; conditions: about 50 nM dasatinib; FIG. 18
p190 leukemic cells = assay: Syngenic mouse leukemia transplant model (p190); type: in vivo, Balb/c mice
Protocol: The murine bone marrow infection/transplantation method was used to determine the effect of kinase inhibitors on disregulated cellular proliferation […]. The MSCV-p190-BCR-Abl-Ires-GFP (MIG-p190) or MSCV-p190-BCR-Abl-Ires-hCD4Δtail (MIC-p190) retroviral vectors were assembled in 293T cells and used to transduce bone marrow cells. The GFP and CD4Δtail markers allow quantitation by FACS analysis and/or enrichment by magnetic sorting of transduced cells.
These cells were administered together with a radioprotective dose of about 5×10^6 normal bone marrow cells from 3-5 week old donor Balb/c mice. […] Mice who became sick after about 14 days were euthanized and lymphoid organs were harvested for analysis. Kinase inhibitor treatment began about 10 days after leukemic cell injection and continued daily until the mice became sick or a maximum of approximately 35 days post-transplant. Inhibitors were given by oral lavage.
Peripheral blood cells were collected approximately on day 10 (pre-treatment) and upon euthanization (post treatment), contacted with labeled anti-hCD4 antibodies and counted by flow cytometry.
Mice were injected with the BrdU analogue EdU and sacrificed. Bone marrow and spleen were collected, blast cells were harvested from the tissue, and stained with antibodies to hCD4, and analyzed by flow cytomtery.
Bone marrow and spleen were collected, blast cells were harvested from the tissue, and stained with antibodies to hCD4, Annexin V, and 7AAD, and analyzed by flow cytometry. […] The results also show significant increase at the concentrations examined in induction of apoptosis at the concentrations examined of imatinib in combination with rapamycin or PI-103.

CD98 = CD98 surface expression by flow cytometry; type: cell-based; conditions: FIG. 25
[7] = tested on: myristolated-Akt transgenic thymocytes tumors; assay: Akt murine allograft tumor model; type: in vivo, NOD/SCID mice; conditions: PP242 100 mg/kg, rapamycin 5 mg/kg, gavage daily, 20 days
[8] = tested on: PI3K signaling (PIP3 accumulation); assay: PIP3 accumulation in p190 cells by confocal microscopy; type: cell-based; conditions: 20 and 200 nM, 4 hr; FIG. 38C
[9] = tested on: cap-dependent translation; assay: Cap-dependent translation, m7GTP affinity, p190 cells; type: cell-based; conditions: IM at 5 μM; FIG. 38D
[10] = tested on: ENaC-dependent Na+ current; assay: ENaC-dependent Na+ transport in mpkCCD cells

In the case of O=c1cc(N2CCOCC2)oc2c(-c3ccccc3)cccc12 [LY294002], the “phosphorylated SGK1 (upper bands)” value (SGK1 phosphorylation) is reported as “eliminated”, the p70S6K phosphorylation (p70S6K phosphorylation) is reported as “eliminated the band detected by anti-phospho p70S6K antibody” and the pS422-SGK1 band (SGK1 pS422) is reported as “abrogated”.

For CO[C@H]1C[C@@H]2CC[C@@H](C)[C@@](O)(O2)C(=O)C(=O)N2CCCC[C@H]2C(=O)O[C@H]([C@H](C)C[C@@H]2CC[C@@H](O)[C@H](OC)C2)CC(=O)[C@H](C)/C=C(\C)[C@@H](O)[C@@H](OC)C(=O)[C@H](C)C[C@H](C)/C=C/C=C/C=C/1C [rapamycin, reference compound], the cell proliferation ([1]; SIN1−/− MEFs) was “less effective at blocking cell proliferation than TORKinib”, the cell proliferation ([1]; wild-type MEFs, 72 hours) was “at all concentrations tested it inhibited cell growth to the same extent” and the “phosphorylation of 4EBP1 at S65” value [2] was “weakly inhibits”. The “phosphorylation of 4EBP1 at T37/46” value [2] was “weakly enhances”, the “phosphorylation of 4EBP1 at T70” value [2] was “neither rapamycin nor TORKinib affect” and the “phosphorylation of S6 kinase (S6K) and S6” value ([2]; FIG. 8) was “inhibit phosphorylation of S6 kinase (S6K) and its substrate S6”. The “retention of 4EBP1 on eIF-4E (m7GTP pull-down)” value (4EBP1 binding to eIF-4E) was “partial inhibition of the insulin stimulated release of 4EBP1 from eIF-4E”, the “phosphorylation of p70S6K and 4EBP1” value [3] was “completely block the phosphorylation of p70S6K but not 4EBP1” and the S6 phosphorylation [4] was “equally inhibited”. For the same compound, the “phosphorylation of 4EBP1 on T37/46 and S65” value [4] was “did not block 4EBP1 phosphorylation as completely as TORKinib”, the “anti-CD3 mediated phosphorylation of Akt-S473” value [5] was “enhances Akt phosphorylation” and the “anti-CD3 mediated phosphorylation of S6” value [5] was “inhibits S6 phosphorylation”. For the same compound, the “type of effect on cell viability” value (p190 transduced cells) was “primarily cytostatic”, the “colony formation in combination with dasatinib” value [6] was “additive or synergistic activity” and the “number of cycling leukemic blasts” value (p190 leukemic cells; bone marrow and spleen, FIG. 23) was “significantly reduced the number of cycling leukemic blasts”. The “apoptosis of leukemic blast cells” value (p190 leukemic cells; bone marrow and spleen, FIG. 24) was “induction of apoptosis in leukemic blast cells”, the splenomegaly (p190 leukemic cells; oral lavage daily, FIG. 21) was “significant decrease in splenomegaly” and the CD98 expression (CD98) was “reduced CD98 expression”. For the same compound, the tumor growth [7] was “mirrored the vehicle treated cohort”, the “phosphorylated SGK1 (upper bands)” value (SGK1 phosphorylation) was “had no effect on the upper bands” and the p70S6K phosphorylation (p70S6K phosphorylation) was “eliminated the band detected by anti-phospho p70S6K antibody”. The pS422-SGK1 band (SGK1 pS422) was “not by rapamycin”, the “PI3K signaling (PIP3 accumulation)” value [8] was “significantly activated PI3K signaling” and the cap-dependent translation [9] was “does not”. For the same compound, the “aldosterone-induced Na+ current” value ([10]; mpkCCD cells) was “had no effect” and the “Na+ current after prolonged treatment” value ([10]; prolonged treatment (>16 h)) was “does inhibit Na+ current”.
